Test results from the supplement of paper PMC7666118.
The other results are listed elsewhere or left out.

Protein sequences, listed by entry. Tags and fused reporters are not part of them. Lines headed by an entry give the natural chain unless they say otherwise; changes in a name come on top.
UniProt Q8IXQ4: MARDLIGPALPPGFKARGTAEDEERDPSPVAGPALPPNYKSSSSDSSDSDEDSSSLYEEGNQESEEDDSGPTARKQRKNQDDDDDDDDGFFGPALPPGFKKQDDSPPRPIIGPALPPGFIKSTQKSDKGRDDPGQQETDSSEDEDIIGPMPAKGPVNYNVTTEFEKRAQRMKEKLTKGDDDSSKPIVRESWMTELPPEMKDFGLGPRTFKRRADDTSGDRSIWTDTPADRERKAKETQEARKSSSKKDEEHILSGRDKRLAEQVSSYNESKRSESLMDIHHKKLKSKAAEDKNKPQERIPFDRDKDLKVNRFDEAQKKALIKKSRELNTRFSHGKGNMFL
UniProt Q659C4: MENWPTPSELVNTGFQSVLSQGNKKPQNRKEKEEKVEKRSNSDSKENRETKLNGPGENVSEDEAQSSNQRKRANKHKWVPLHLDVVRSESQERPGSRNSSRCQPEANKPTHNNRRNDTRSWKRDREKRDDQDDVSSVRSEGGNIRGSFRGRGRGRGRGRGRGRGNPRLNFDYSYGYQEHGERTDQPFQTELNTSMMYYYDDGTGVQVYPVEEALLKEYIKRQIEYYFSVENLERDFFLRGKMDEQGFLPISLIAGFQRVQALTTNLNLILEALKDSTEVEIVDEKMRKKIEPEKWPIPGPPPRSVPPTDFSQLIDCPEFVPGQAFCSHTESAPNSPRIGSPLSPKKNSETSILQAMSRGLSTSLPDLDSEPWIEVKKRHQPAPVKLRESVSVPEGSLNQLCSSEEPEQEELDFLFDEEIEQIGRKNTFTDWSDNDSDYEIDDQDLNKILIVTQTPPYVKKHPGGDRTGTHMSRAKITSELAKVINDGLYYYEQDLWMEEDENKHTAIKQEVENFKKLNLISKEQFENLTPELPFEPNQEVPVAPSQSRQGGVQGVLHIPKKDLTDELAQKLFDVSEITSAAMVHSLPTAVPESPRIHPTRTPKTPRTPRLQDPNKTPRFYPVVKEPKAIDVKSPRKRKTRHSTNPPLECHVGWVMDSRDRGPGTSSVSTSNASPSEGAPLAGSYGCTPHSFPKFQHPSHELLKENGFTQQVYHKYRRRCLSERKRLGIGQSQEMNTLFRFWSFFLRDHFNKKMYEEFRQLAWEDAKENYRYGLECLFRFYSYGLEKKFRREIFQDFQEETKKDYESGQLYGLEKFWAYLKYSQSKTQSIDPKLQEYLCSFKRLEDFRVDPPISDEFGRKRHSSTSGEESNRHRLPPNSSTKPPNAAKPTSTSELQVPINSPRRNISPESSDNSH
UniProt Q8IYS2: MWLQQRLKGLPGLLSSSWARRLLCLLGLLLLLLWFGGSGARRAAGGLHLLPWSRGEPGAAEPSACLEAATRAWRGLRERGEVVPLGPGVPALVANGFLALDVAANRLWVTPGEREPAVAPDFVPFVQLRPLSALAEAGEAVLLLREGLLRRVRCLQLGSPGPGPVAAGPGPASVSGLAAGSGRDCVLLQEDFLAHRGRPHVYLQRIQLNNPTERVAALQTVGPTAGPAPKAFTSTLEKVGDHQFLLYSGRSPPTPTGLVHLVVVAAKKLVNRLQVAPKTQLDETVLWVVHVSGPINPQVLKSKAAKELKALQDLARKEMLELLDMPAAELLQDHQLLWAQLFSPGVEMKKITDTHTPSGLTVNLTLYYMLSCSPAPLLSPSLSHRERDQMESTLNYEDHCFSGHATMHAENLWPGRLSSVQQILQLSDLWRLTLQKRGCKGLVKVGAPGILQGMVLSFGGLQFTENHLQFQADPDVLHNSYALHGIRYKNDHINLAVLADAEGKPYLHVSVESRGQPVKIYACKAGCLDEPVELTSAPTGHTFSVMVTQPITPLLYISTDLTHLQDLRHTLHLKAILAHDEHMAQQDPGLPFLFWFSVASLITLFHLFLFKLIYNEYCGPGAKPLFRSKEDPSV
UniProt Q5VWZ2: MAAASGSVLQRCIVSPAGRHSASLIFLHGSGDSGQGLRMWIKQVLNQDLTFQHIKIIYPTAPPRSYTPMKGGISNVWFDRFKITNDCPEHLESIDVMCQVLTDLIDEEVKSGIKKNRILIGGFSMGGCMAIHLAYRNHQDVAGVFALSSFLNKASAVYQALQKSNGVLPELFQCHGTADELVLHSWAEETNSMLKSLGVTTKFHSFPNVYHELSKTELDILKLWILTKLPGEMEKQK
UniProt O95372: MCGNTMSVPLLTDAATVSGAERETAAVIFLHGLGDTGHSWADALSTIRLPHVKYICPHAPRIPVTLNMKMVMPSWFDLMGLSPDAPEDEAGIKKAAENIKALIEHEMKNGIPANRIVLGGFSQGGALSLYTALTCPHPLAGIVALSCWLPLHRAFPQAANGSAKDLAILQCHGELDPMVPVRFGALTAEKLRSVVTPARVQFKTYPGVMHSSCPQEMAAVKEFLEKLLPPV
UniProt Q9UI95, whole entry: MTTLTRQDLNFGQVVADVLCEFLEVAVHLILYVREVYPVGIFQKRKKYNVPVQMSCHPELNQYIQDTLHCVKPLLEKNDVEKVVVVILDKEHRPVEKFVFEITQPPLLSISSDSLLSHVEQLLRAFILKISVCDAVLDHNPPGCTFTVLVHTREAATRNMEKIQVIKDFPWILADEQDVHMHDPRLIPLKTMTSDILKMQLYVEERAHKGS
UniProt Q14657: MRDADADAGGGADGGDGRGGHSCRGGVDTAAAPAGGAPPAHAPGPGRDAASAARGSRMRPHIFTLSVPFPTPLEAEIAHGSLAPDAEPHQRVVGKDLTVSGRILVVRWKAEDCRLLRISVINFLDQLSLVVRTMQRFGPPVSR
UniProt O15525: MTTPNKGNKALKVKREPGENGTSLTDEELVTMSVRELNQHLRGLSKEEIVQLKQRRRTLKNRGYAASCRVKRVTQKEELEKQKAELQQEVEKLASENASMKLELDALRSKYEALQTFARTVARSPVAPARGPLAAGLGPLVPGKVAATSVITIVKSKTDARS
UniProt Q96BZ8: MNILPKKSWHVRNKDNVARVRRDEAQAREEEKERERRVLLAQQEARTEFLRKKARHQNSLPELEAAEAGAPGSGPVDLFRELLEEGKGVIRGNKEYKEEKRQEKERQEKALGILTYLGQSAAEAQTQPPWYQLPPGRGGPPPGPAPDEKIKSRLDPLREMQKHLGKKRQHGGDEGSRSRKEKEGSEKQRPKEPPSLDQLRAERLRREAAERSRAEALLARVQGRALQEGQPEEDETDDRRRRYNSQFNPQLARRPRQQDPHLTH
UniProt Q9NSK0: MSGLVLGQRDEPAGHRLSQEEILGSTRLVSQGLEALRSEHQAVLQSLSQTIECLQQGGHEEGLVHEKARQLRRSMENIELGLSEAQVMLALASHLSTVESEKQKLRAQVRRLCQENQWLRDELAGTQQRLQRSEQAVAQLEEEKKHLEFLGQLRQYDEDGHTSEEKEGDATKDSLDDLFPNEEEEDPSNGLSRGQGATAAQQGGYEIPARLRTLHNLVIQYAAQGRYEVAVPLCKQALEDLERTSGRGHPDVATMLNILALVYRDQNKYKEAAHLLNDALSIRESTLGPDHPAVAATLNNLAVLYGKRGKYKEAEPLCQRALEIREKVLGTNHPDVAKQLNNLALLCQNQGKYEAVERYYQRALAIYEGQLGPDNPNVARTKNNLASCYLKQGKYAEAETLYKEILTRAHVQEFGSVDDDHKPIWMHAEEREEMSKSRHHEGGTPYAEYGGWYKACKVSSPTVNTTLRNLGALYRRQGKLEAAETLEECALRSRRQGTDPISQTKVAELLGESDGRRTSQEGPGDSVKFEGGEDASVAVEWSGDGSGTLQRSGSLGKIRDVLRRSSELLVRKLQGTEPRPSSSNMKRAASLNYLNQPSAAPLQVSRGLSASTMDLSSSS
UniProt O75037: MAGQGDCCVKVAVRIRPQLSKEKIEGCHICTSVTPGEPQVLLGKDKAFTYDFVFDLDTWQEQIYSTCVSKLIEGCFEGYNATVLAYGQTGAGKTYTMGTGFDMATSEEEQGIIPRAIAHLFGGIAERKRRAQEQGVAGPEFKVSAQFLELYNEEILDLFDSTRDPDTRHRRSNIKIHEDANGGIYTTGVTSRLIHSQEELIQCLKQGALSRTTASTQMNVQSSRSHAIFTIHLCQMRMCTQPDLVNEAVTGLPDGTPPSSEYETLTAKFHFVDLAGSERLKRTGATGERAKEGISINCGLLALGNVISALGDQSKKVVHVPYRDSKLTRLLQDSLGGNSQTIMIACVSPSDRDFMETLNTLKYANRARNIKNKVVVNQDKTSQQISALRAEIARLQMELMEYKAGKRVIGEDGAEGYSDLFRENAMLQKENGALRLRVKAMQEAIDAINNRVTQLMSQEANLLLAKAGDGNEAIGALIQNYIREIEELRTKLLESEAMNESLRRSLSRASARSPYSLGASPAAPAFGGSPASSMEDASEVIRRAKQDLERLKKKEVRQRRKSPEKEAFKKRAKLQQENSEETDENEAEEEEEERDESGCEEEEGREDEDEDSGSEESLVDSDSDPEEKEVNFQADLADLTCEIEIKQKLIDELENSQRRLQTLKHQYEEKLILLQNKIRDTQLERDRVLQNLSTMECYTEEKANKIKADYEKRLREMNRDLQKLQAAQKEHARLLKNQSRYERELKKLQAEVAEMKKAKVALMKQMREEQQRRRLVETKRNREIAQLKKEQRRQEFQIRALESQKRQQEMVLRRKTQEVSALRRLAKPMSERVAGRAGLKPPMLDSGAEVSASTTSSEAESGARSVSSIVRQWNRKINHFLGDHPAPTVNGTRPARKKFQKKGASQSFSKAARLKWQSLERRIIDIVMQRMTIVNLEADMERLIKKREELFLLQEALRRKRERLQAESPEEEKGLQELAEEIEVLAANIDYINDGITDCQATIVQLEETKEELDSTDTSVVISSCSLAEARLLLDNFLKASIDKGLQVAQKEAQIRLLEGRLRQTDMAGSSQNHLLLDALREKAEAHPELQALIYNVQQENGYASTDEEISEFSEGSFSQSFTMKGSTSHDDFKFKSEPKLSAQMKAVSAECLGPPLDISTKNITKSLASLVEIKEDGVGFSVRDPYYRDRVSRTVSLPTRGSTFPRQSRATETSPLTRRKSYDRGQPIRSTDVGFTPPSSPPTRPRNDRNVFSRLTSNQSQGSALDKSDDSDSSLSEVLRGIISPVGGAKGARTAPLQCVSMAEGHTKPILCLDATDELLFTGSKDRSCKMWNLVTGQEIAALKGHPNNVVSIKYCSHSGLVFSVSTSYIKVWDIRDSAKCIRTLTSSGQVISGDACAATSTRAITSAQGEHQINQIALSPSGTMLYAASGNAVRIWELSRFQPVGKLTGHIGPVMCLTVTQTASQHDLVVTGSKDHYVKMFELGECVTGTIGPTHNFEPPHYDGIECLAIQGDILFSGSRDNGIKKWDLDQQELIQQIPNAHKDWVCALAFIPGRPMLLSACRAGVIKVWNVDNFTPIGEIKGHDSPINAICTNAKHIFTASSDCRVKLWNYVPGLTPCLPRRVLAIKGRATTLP
UniProt Q14444, whole entry: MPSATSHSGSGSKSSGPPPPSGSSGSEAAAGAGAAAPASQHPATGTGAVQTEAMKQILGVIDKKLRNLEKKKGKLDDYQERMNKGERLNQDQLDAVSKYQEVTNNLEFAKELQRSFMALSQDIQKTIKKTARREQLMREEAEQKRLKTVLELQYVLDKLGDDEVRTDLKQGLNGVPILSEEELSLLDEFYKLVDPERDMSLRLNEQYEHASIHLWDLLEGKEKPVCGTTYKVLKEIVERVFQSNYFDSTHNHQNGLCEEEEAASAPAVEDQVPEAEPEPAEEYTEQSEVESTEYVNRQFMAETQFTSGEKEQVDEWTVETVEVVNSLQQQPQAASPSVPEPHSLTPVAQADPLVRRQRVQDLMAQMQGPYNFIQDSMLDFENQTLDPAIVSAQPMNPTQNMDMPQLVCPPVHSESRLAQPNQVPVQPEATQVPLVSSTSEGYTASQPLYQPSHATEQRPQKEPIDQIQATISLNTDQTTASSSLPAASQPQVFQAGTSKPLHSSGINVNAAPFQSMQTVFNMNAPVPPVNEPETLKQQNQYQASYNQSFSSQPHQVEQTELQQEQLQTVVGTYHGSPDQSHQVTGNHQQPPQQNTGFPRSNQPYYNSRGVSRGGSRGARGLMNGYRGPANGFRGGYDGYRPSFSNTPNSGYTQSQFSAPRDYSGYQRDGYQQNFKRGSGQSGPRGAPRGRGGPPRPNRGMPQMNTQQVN
UniProt Q6P1A2: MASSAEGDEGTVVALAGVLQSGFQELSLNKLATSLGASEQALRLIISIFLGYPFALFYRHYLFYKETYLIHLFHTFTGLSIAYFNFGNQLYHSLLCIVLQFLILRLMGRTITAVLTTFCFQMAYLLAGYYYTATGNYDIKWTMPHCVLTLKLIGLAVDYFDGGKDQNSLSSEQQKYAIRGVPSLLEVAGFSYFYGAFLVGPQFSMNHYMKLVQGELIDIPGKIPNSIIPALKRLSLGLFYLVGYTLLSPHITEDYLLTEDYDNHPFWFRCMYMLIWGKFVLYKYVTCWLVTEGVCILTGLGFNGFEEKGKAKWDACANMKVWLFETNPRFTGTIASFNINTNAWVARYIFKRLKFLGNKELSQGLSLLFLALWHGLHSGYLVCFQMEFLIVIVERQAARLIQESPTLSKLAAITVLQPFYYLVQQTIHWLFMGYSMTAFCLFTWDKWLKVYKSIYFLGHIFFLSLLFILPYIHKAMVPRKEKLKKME

The targets below were run with COc1ccc(Cn2ccc3ccc(C(=O)NO)cc32)cc1 (assay: dose-dependent thermal stabilisation call (2D-TPP, DLPTP, 10% FDR) (binary (1 = stabilised)); higher = stabilised by the compound). Conditions: system: HL-60 intact cells; concentration range 0.04-10 µM.

Row | Target | dose-dependent thermal stabilisation call
1 | KIAA1704 (UniProt Q8IXQ4) | inactive: 0
2 | LARP2 (UniProt Q659C4) | inactive: 0
3 | LIMK2 (UniProt P53671) | inactive: 0
4 | KPNA6 (UniProt O60684) | inactive: 0
5 | KIAA2013 (UniProt Q8IYS2) | inactive: 0
6 | LAMP2 (UniProt P13473) | inactive: 0
7 | KIF5B (UniProt P33176) | inactive: 0
8 | LYPLAL1 (UniProt Q5VWZ2) | inactive: 0
9 | LYPLA2 (UniProt O95372) | inactive: 0
10 | LRWD1 (UniProt Q9UFC0) | inactive: 0
11 | KIAA1279 (UniProt Q96EK5) | inactive: 0
12 | LEMD2 (UniProt Q8NC56) | inactive: 0
13 | LENG8 (UniProt Q96PV6) | inactive: 0
14 | LAP3 (UniProt P28838) | active: 1
15 | LAS1L (UniProt Q9Y4W2) | inactive: 0
16 | KIAA0652 (UniProt O75143) | inactive: 0
17 | LARS (UniProt Q9P2J5) | inactive: 0
18 | LOC727877 | inactive: 0
19 | LRMP (UniProt Q12912) | inactive: 0

Row | Target | dose-dependent thermal stabilisation call
20 | L3MBTL2 (UniProt Q969R5) | inactive: 0
21 | MAD2L2 (UniProt Q9UI95) | inactive: 0
22 | KIAA1545 (UniProt Q9HCM7) | inactive: 0
23 | LOC388474 | inactive: 0
24 | LOC653156 | inactive: 0
25 | LAGE3 (UniProt Q14657) | inactive: 0
26 | LHPP (UniProt Q9H008) | inactive: 0
27 | KPNA1 (UniProt P52294) | inactive: 0
28 | MAFG (UniProt O15525) | inactive: 0
29 | LPXN (UniProt O60711) | inactive: 0
30 | LBR (UniProt Q14739) | inactive: 0
31 | LENG1 (UniProt Q96BZ8) | inactive: 0
32 | LOC729148 | inactive: 0
33 | KIAA0586 (UniProt Q9BVV6) | inactive: 0
34 | KLC4 (UniProt Q9NSK0) | inactive: 0
35 | KIF21B (UniProt O75037) | inactive: 0
36 | M11S1 (UniProt Q14444) | inactive: 0
37 | LPCAT3 (UniProt Q6P1A2) | inactive: 0

3 records picked at random from those above:
Row | Target | dose-dependent thermal stabilisation call
35 | KIF21B (UniProt O75037) | inactive: 0
29 | LPXN (UniProt O60711) | inactive: 0
33 | KIAA0586 (UniProt Q9BVV6) | inactive: 0
